We go through 1 molecule from article doi:10.1101/2023.12.25.573330.

These are yes or no findings as the source states them, for the method shown. Some results given as binding are weak or reduced against the parent protein; the word gives no strength.

For the test, the target named is T1, TMEM41B (human), Q5BJD5.
T1 chain: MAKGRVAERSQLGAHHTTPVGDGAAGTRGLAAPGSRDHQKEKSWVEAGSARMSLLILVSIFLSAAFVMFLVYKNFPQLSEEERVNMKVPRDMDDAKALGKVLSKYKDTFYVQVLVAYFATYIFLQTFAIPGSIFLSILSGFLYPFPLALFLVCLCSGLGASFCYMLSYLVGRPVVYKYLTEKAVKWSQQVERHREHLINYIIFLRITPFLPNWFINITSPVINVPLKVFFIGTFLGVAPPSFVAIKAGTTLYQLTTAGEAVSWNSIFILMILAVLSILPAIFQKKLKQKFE
As to the kind of experiment: native gel or EMSA. The following applies: remark: other sources report otherwise.

B1: TMEM41B, Q5BJD5 1-291 (protein)
chain: MAKGRVAERSQLGAHHTTPVGDGAAGTRGLAAPGSRDHQKEKSWVEAGSARMSLLILVSIFLSAAFVMFLVYKNFPQLSEEERVNMKVPRDMDDAKALGKVLSKYKDTFYVQVLVAYFATYIFLQTFAIPGSIFLSILSGFLYPFPLALFLVCLCSGLGASFCYMLSYLVGRPVVYKYLTEKAVKWSQQVERHREHLINYIIFLRITPFLPNWFINITSPVINVPLKVFFIGTFLGVAPPSFVAIKAGTTLYQLTTAGEAVSWNSIFILMILAVLSILPAIFQKKLKQKFE
B1: the binding entry is listed as “binds”.
